# System: ADSC
# Assay: EdU labeling of ADSC in vitro
# Type: cell-based, rat
smiles,measurement,setting,value
"C#Cc1cn([C@H]2C[C@H](O)[C@@H](CO)O2)c(=O)[nH]c1=O [EdU, 5-ethynyl-2-deoxyuridine]",cells EdU-labeled,"0-50 uM EdU, 24 h, regardless of concentration (P>0.05)",approximately 50%
same,EdU signal in positively labeled cells,"10 uM EdU, split at 1 to 21 days (P<0.01)",decreased with time
